According to publication PMC6753678, “Fueling Open Innovation for Malaria Transmission-Blocking Drugs: Hundreds of Molecules Targeting Early Parasite Mosquito Stages” (Frontiers in Microbiology, 2019):

The molecules below were run on P. berghei ookinete development. Conditions: not given.

Row | SMILES | Assay tox ratio Pb ODA | Assay tox ratio Pb ODA (red: <10-fold selectivity; green: >10-fold)
1 | O=C(NCc1ccco1)c1ccc(CN2CCN(C(c3ccccc3)c3ccccc3)CC2)cc1 [TCMDC-140763] | 35.36 | –
2 | COc1nc2c(CCN3CC[C@H](NCc4ccc5c(c4)NC(=O)CO5)[C@H](O)C3)c(Cl)cnc2cc1F.Cl [TCMDC-135805] | – | 15.62
3 | Cc1nc(/N=C(\N)NC(=O)NC2CCCCC2)nc2ccccc12 [TCMDC-123808] | – | 32.79
4 | CCN(CC)c1ccccc1CNC(=O)c1cc(Cl)c(N)cc1OC [TCMDC-131416] | 31.65 | –
5 | COc1ccc(-c2cnc(N)c(-c3ccc(C(N)=O)cc3)c2)cc1OC [TCMDC-133349] | 234.49 | –
6 | CCc1c(C)nc(-n2nc(C)cc2NC(=O)C(CC)c2ccccc2)[nH]c1=O (stereo not drawn) [TCMDC-124935] | – | 0.11
7 | Cc1cc(C2NC(=O)c3ccccc3N2)c(C)n1-c1ccc2c(c1)OCO2 (stereo not drawn) [TCMDC-125051] | 4.06 | –
8 | CN(C)c1ccc(C=CC(=O)NC(=O)c2ccccc2O)cc1 [TCMDC-125391] | 475.96 | –
9 | COc1nc2c(CCN3CCC(NCc4ccc5c(n4)NC(=O)CO5)CC3)c(Cl)cnc2cc1F.Cl [TCMDC-135766] | – | 11.46
10 | Cc1nc2nc(N)nc(N)c2c(C)c1Cc1ccccc1.Cl [TCMDC-137670] | – | 0.01
11 | CC(=O)Oc1c(Cl)c(C)nc(C)c1-c1ccc(Oc2ccc(Cl)cc2)cc1 [TCMDC-137381] | – | 26.92
12 | COc1ccc(Cn2c(Nc3cccc(C(F)(F)F)c3)nc3cc(C(=O)NC(C)C)cnc32)cc1Cl [TCMDC-138556] | 9.42 | –
13 | CC(C)CN1CCN(c2nc(C#N)c3c(c2C(=S)NC2CCCCC2)CC(C)(C)OC3)CC1 [TCMDC-124173] | 20.46 | –
14 | COc1cc(F)c2ncc(Cl)c(CCN3CCC(NCc4ccc5c(c4)NC(=O)CO5)CC3)c2c1.Cl [TCMDC-135623] | – | 22.73
15 | Cc1ccc(Nc2nc3cc(N(C)c4ccnc(Nc5cccc(CCS(C)(=O)=O)c5)n4)ccc3n2C)cc1.O=C(O)C(F)(F)F [TCMDC-138853] | 1.76 | –
16 | Nc1c2ccccc2nc2ccc(Cl)cc12 [TCMDC-132029] | 9.24 | –
17 | CC1CN(Cc2ccc(-c3ccc(-c4nc5cc(F)ccc5[nH]4)cc3)cc2)CC(C)O1.O=C(O)C(F)(F)F (stereo not drawn) [TCMDC-133831] | – | 20.81
18 | CS(=O)(=O)Cc1cccc(Nc2ncc(Cl)c(Nc3cccnc3C(N)=O)n2)c1.Cl [TCMDC-134166] | – | 3.97
19 | COc1ccc2nccc(NC(=O)C3(O)CCC(NCc4ccc5c(c4)NCCS5)CC3)c2n1.Cl (stereo not drawn) [TCMDC-141406] | – | 69.90
20 | COc1cccc(CC(=O)N2CCC(n3c(C)nc4ccc(F)cc43)CC2)c1 [TCMDC-124792] | 125.96 | –

Row | SMILES | Assay tox ratio Pb ODA | Assay tox ratio Pb ODA (red: <10-fold selectivity; green: >10-fold)
21 | COc1ccc2nccc([C@@H](O)CN3CCC(NCc4cc5cccc6c5n(c4=O)CCC6)CC3)c2c1.O=C(O)C(=O)O [TCMDC-140735] | 4.72 | –
22 | C=Cc1ccc(-c2c(C)[nH]c(C)c(Br)c2=O)cc1 [TCMDC-135433] | – | 46.48
23 | Cl.O=C(NC1CCN(CC2(c3ccc(Cl)cc3)CCCCC2)CC1)c1cc[nH]n1 [TCMDC-124828] | – | 22.13
24 | COc1ccc(Nc2ncc(OC)c(Nc3ccccc3C(N)=O)n2)cc1N1CCN(C)CC1.O=CO [TCMDC-134149] | – | 50.00
25 | Cc1[nH]c(C)c(-c2ccc(Oc3ccc(OC(F)(F)F)cc3)cc2)c(=O)c1Br [TCMDC-138826] | – | 9.61
26 | CNC(=O)c1ccccc1Nc1nc(Nc2ccc(N3CCOCC3)cc2)ncc1Cl.Cl [TCMDC-134144] | – | 9.39
27 | CCCOc1cc(OCCC)cc(-c2cc(=O)c3ccccc3[nH]2)c1 [TCMDC-138943] | 182.72 | –
28 | COc1cc(NC(=O)Nc2ccc(Br)cc2C(=O)Nc2ccc(Br)cc2)cc(OC)c1OC [TCMDC-139733] | 15.68 | –
29 | O=C(c1cc(-c2cccs2)[nH]n1)N1CCN(S(=O)(=O)c2ccc(Cl)cc2)CC1 [TCMDC-124702] | – | 9.71
30 | NCC(NC(=O)c1ccc(-c2c[nH]c3ncccc23)s1)c1ccccc1.O=CO (stereo not drawn) [TCMDC-134154] | 16.83 | –
31 | O=C(Nc1ccccc1)Nc1ccc(-n2ccc(C(F)(F)F)n2)cc1 [TCMDC-123480] | 52.73 | –
32 | COc1ccc2ncc(F)c(NC(=O)C3CCC(NCc4cc5cc(F)cc(F)c5[nH]4)CC3)c2n1.Cl (stereo not drawn) [TCMDC-136455] | – | 15.25
33 | COc1cc(NC2=NS(=O)(=O)c3cc(Cl)ccc3N2C)cc(OC)c1OC.O=C(O)C(F)(F)F [TCMDC-134208] | 73.96 | –
34 | CCOC(=O)C1=C(C)NC2=C(C(=O)C(C(=O)OC)C(C)C2)C1c1cc(Br)c(OCC)c(OC)c1 (stereo not drawn) [TCMDC-125139] | 11.03 | –
35 | Cc1c(Cc2ccccc2Br)cnc2nc(N)nc(N)c12.Cl [TCMDC-137244] | – | 0.000914
36 | CCCCCCCc1cc(=O)c2ccccc2[nH]1 [TCMDC-132026] | – | 18.19
37 | Cc1[nH]c(C)c(-c2ccc(C(=O)c3ccc(Cl)cc3)cc2)c(=O)c1Br [TCMDC-137407] | – | 575.25
38 | N#Cc1ccc(CN2CCC(Oc3ccc(NC(=O)c4cccs4)cc3Cl)CC2)cc1.O=C(O)C(F)(F)F [TCMDC-133955] | – | 8.33
39 | CCCCCCCCCc1c(C)[nH]c2ccccc2c1=O [TCMDC-137268] | – | 175.28
40 | O=C(NC1CCN(CC2(c3ccccc3F)CCCC2)CC1)c1ccn[nH]1 [TCMDC-124837] | – | 28.05

Same assay, conditions: unified cytotox / IC50; <10-fold red, >10-fold green

Row | SMILES | Assay tox ratio Pb ODA
41 | COc1ccc2nccc([C@@H](O)CN3CCC(NC(=O)c4ccc5cc[nH]c5c4)CC3)c2c1.CS(=O)(=O)O [TCMDC-140743] | 217.72
42 | Cc1ccccc1Cn1ccc2c3c(N)nc(N)nc3ccc21 [TCMDC-137812] | 0.02
43 | COc1c(F)ccc2ncc(Cl)c(CCN3CCC(NCc4ccc5c(n4)NC(=O)CS5)CC3)c12.Cl [TCMDC-141955] | 12.63
44 | CCC(CC)n1c(C)cc2c3c(N)nc(N)nc3ccc21 [TCMDC-137283] | 0.00201
45 | Cc1[nH]c(C)c(-c2ccc(Oc3ccc(Cl)cc3)cc2)c(=O)c1C [TCMDC-137378] | 13.54
46 | Cc1[nH]c(C)c(-c2ccc(-c3ccccc3F)nc2)c(=O)c1Br [TCMDC-135926] | 216.88
47 | Nc1nc(N)c2c(ccc3c2ccn3Cc2ccc3c(c2)OCO3)n1 [TCMDC-137808] | 0.07
48 | Cc1[nH]c(C)c(-c2ccc(-c3ccc(Cl)cc3)nc2)c(=O)c1Br [TCMDC-136159] | 106.34
49 | Br.CC(CON1C(N)=NC(N)=NC1(C)C)c1ccc(Cl)cc1Cl (stereo not drawn) [TCMDC-131687] | 0.000475
50 | COc1ccc2nccc([C@@H](O)CN3CCC(NC(=O)c4cc5c(F)cc(F)cc5[nH]4)CC3)c2c1.CS(=O)(=O)O [TCMDC-140781] | 11.21
51 | CC(C)(CNC(=O)[C@H]1CCCCN1)c1nc(-c2ccc(Cl)c(O)c2)c(-c2ccncc2)[nH]1.Cl [TCMDC-141070] | 17.63
52 | Cc1[nH]c(C)c(-c2ccc(OCc3cc(F)cc(F)c3)nc2)c(=O)c1Br [TCMDC-135683] | 62.13
53 | Cc1[nH]c(C)c(-c2ccc(-c3ccc(Cl)cc3)nc2)c(=O)c1Cl [TCMDC-136301] | 103.86
54 | CCC(CC)n1c(COC)cc2c3c(N)nc(N)nc3ccc21 [TCMDC-137313] | 0.00126
55 | O=c1c(Br)ccccc1Br [TCMDC-142246] | 14.68
56 | COc1ccc2ncc(F)c(CCN3CCC(NC(=O)c4ccc5c(n4)NC(=O)CS5)C(O)C3)c2n1 (stereo not drawn) [TCMDC-135907] | 110.69
57 | Cc1[nH]c(C)c(-c2ccc(Oc3ccc(F)cc3)cc2)c(=O)c1Cl [TCMDC-134728] | 1151.75
58 | Cc1[nH]c(C)c(-c2ccc(OCc3ccc(OC(F)(F)F)cc3)nc2)c(=O)c1Cl [TCMDC-135271] | 93.65
59 | Cc1[nH]c(C)c(-c2ccc(-c3ccccc3Cl)nc2)c(=O)c1Br [TCMDC-136157] | 0.33
60 | COc1ccc2nccc([C@@H](O)CN3CCC(NCc4cc5ccc(C#N)cc5[nH]4)CC3)c2c1.O=C(O)C(=O)O [TCMDC-140696] | 0.82
61 | COc1ccc(CCc2ccc(-c3c(C)[nH]c(C)c(Cl)c3=O)cc2)cc1OC [TCMDC-135789] | 360.43
62 | CCCc1cc2c3c(N)nc(N)nc3ccc2n1C(CC)CC [TCMDC-137312] | 0.00366
63 | COc1cccc(CC(=O)N2CCC(n3c(C)nc4ccc(C)cc43)CC2)c1 [TCMDC-124791] | 89.57
64 | Cc1cccc(Nc2nc(N[C@@H]3CCCNC3)nc3cc[nH]c(=O)c23)c1.O=C(O)C(F)(F)F [TCMDC-134835] | 4.40
65 | Cc1cc2c3c(N)nc(N)nc3ccc2n1C(C)C [TCMDC-137864] | 0.0143
66 | Cc1[nH]c(C)c(-c2ccc(-c3cccc(Cl)c3)nc2)c(=O)c1Br [TCMDC-136160] | 47.77
